Data on one molecule can be found in article PMC7067850, “Identification of highly potent and selective inhibitor, TIPTP, of the p22phox-Rubicon axis as a therapeutic agent for rheumatoid arthritis” (Scientific Reports, 2020).

No constants are given. Whether binding was seen depends on the method and setting. In cells and extracts the contact can be indirect. These calls come from enrichment with a bait or labelling near it, and not all partners need be listed.

This assay concerns the target T1, p22phox subunit of NADPH oxidase (mouse, endogenous) (mouse (endogenous in synoviocytes of CIA mice, BMDMs, Raw264.7)) (UniProt Q61462).
T1 sequence: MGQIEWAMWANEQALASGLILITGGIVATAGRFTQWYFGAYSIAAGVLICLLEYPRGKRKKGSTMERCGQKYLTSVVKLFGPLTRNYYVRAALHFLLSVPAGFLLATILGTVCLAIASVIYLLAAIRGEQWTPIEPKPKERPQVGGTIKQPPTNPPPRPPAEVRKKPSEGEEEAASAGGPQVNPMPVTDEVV
Description: affinity purification with mass spectrometry; p22phox complexes precipitated from synovial fluid containing synoviocytes of CIA mice, washed with lysis buffer, NuPAGE gel, silver stain, band analysed by tandem mass spectrometry.

B1: Run/cysteine-rich-domain-containing Beclin1-interacting autophagy protein (Rubicon) (mouse, endogenous) (protein, UniProt Q80U62 1-956)
chain: MRPEGAGMDLGGGDGERLLEKSRREHWQLLGNLKTTVEGLVSANCPNVWSKYGGLERLCRDMQNILYHGLIHDQVCCRQADYWQFVKDIRWLSPHSALHVEKFISLHESDQSDTDSVSERAVAELWLQHSLQCHCLSAQLRPLLGDRQYIRKFYTETAFLLSDAHVTAMLQCLEAVEQNNPRLLAQIDASMFARKQESPLLVTKSQSLTALPGSTYTPPASYAQHSYFGSSSSLQSMPQSSHSSERRSTSFSLSGPSWQPQEDRECLSPAETQTTPAPLPSDSTLAQDSPLTAQEMSDSTLTSPLEASWVSSQNDSPSDVSEGPEYLAIGNPAPHGRTASCESHSSNGESSSSHLFSSSSSQKLESAASSLGDQEEGRQSQAGSVLRRSSFSEGQTAPVASGTKKSHIRSHSDTNIASRGAAGGPRNITIIVEDPIAEGGQYLCSGEGMFRRPSEGQSLISYLSEQDFGSCADLEKENAHFSISESLIAAIELMKCNMMSQCLEEEEVEEEDSDREIQELKQKIRLRRQQIRTKNLLPAYRETENGSFRVTSSSSQFSSRDSTQLSESGSAEDADDLEIQDADIRRSAVSNGKSSFSQNLSHCFLHSTSAEAVAMGLLKQFEGMQLPAASELEWLVPEHDAPQKLLPIPDSLPISPDDGQHADIYKLRIRVRGNLEWAPPRPQIIFNVHPAPTRKIAVAKQNYRCAGCGIRTDPDYIKRLRYCEYLGKYFCQCCHENAQMVVPSRILRKWDFSKYYVSNFSKDLLLKIWNDPLFNVQDINSALYRKVKLLNQVRLLRVQLYHMKNMFKTCRLAKELLDSFDVVPGHLTEDLHLYSLSDLTATKKGELGPRLAELTRAGAAHVERCMLCQAKGFICEFCQNEEDVIFPFELHKCRTCEECKACYHKTCFKSGRCPRCERLQARRELLAKQSLESYLSDYEEEPTEALALEATVLETT
Take B1: the binding entry is listed as “binds”.
